# From the supplement of paper PMC12819154, “High-throughput peptide-centric local stability assay extends protein–ligand identification to membrane proteins, tissues and bacteria” (Nature Structural & Molecular Biology, 2025)
# Amino acid sequences for entries named in this document (tags omitted). A change or cut given only in a name is not applied to a line headed by its entry.
# UniProt Q16254: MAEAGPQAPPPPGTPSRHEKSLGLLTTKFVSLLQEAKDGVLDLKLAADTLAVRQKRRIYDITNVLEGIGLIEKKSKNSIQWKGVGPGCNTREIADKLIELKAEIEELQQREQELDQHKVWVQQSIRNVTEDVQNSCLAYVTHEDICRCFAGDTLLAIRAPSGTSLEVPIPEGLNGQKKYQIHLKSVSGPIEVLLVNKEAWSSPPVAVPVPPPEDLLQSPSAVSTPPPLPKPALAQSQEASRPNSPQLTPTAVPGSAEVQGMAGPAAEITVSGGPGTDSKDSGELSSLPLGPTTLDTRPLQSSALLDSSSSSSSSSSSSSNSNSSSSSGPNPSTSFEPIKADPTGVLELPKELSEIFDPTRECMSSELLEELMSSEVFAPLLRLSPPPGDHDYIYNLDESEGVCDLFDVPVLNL
# UniProt Q15366, whole entry: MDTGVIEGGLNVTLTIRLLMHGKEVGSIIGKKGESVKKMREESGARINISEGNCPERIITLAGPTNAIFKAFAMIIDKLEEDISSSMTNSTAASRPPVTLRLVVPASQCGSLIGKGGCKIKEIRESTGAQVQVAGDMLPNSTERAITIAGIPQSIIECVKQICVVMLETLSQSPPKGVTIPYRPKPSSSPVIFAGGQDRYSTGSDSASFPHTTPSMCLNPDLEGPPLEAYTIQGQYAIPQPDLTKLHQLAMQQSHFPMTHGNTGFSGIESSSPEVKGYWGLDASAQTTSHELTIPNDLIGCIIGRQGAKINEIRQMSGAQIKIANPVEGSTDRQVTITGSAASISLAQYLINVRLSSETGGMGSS
# UniProt Q155Q3: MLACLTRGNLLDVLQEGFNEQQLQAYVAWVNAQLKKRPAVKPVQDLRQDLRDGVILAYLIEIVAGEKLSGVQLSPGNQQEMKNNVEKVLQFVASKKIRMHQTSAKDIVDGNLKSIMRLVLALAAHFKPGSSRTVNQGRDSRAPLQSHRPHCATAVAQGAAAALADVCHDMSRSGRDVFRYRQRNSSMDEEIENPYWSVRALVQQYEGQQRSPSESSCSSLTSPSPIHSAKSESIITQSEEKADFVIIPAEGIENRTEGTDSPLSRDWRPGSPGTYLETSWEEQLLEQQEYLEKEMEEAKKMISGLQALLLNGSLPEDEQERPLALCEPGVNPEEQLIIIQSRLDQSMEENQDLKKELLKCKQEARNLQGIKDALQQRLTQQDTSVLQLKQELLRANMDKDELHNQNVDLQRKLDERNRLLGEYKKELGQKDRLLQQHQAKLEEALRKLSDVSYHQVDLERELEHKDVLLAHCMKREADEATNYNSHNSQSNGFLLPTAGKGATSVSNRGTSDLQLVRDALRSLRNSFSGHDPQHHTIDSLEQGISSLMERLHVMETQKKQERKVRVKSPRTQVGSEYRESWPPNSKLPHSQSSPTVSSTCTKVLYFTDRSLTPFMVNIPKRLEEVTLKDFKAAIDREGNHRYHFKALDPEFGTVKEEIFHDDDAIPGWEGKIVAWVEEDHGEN
# UniProt Q15631: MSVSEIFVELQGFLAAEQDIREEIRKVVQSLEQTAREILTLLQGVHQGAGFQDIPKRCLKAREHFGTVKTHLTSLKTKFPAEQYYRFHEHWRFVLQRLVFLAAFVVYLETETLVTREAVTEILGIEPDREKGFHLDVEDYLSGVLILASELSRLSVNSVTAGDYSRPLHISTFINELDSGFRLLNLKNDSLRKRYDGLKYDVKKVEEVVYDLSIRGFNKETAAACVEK
# UniProt Q3ZCQ8: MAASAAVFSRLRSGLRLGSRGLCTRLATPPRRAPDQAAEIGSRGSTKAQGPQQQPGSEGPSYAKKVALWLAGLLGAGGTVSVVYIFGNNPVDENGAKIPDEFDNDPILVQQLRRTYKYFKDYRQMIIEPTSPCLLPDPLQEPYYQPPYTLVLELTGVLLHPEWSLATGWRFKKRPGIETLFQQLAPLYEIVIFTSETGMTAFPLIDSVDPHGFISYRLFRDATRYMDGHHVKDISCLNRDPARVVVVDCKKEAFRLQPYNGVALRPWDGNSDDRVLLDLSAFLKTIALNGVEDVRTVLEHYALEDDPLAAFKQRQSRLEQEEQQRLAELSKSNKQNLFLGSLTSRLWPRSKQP
# UniProt Q16670: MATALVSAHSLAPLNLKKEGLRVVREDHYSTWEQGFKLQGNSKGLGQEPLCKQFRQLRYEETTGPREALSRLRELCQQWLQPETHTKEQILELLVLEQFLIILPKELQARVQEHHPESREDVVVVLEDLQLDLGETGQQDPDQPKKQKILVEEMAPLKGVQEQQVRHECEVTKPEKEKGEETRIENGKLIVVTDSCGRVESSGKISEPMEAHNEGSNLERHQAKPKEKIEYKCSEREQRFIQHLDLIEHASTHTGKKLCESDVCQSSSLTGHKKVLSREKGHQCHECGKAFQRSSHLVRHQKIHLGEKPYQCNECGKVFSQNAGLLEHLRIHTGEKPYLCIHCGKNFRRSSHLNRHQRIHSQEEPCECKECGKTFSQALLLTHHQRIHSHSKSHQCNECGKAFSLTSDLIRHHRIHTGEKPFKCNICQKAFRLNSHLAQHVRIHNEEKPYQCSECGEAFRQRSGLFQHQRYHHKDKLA
# UniProt Q15052: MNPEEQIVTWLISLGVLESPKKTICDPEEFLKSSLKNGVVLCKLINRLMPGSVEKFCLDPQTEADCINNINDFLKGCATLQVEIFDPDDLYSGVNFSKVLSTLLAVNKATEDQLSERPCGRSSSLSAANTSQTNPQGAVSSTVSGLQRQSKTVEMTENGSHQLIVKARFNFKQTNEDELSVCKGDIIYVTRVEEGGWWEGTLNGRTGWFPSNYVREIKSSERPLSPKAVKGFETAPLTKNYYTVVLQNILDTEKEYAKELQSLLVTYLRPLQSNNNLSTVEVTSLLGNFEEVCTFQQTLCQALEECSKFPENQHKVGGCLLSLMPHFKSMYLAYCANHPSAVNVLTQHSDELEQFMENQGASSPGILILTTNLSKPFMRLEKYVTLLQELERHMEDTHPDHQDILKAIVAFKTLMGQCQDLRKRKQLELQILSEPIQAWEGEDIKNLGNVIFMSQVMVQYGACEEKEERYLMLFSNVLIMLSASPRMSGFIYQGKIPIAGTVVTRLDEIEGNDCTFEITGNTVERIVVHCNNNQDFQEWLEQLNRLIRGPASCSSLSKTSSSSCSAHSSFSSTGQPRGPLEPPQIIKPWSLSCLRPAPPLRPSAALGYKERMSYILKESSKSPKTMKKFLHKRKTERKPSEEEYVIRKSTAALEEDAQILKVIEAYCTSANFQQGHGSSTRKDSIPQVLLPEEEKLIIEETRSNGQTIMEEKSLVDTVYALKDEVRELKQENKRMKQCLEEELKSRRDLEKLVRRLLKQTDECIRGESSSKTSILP
# UniProt Q16850: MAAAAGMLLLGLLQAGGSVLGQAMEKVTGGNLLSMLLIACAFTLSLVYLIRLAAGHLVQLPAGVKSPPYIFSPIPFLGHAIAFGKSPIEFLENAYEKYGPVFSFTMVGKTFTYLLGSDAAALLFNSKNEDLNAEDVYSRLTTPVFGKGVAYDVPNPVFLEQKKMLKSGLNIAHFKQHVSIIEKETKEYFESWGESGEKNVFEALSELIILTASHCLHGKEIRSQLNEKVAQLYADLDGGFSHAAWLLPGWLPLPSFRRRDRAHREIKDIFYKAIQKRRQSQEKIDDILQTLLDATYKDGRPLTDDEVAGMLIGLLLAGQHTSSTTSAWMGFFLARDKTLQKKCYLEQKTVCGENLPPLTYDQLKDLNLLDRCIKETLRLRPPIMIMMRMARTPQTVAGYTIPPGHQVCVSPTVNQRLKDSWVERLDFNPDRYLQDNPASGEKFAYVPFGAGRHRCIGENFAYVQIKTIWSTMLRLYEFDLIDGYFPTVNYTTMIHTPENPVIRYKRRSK
# UniProt Q16720: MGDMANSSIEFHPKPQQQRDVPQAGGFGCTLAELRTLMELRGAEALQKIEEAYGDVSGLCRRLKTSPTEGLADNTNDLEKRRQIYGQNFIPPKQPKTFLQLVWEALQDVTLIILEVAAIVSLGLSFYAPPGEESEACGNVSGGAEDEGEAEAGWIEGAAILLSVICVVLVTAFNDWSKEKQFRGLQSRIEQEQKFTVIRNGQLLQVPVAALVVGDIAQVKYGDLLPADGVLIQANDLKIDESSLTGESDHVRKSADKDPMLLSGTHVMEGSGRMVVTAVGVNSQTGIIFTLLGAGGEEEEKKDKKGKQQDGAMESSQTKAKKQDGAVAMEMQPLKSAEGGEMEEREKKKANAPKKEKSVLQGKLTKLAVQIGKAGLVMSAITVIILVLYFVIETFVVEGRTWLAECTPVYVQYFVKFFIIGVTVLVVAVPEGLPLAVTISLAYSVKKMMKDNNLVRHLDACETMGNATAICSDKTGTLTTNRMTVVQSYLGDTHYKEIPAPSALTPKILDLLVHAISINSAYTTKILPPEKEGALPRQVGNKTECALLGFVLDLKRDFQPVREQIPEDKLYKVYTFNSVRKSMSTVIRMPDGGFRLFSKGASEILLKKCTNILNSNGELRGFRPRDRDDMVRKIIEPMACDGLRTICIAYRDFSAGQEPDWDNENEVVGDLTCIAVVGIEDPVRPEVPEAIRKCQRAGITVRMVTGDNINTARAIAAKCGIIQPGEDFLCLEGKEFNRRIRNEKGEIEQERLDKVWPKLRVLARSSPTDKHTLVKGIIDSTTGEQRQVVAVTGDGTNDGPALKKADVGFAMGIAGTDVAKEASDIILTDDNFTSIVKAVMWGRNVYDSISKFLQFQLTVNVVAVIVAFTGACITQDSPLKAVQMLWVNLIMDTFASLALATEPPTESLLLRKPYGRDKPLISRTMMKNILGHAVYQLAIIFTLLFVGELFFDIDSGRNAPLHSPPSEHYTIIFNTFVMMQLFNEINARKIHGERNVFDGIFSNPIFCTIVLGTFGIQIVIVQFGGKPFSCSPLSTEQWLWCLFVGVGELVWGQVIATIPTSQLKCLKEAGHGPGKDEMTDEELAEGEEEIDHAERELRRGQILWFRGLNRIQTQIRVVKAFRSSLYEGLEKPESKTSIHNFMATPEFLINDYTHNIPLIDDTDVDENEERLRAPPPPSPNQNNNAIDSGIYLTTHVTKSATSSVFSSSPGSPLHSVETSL
# UniProt Q15560: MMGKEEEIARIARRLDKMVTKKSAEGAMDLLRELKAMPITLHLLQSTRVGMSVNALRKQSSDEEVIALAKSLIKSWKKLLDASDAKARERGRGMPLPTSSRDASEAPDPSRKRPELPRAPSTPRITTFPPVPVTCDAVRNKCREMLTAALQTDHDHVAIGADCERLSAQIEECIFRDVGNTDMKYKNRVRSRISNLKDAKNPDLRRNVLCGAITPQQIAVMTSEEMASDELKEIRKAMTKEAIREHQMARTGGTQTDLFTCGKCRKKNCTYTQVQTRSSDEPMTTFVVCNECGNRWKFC
# UniProt Q15796, whole entry: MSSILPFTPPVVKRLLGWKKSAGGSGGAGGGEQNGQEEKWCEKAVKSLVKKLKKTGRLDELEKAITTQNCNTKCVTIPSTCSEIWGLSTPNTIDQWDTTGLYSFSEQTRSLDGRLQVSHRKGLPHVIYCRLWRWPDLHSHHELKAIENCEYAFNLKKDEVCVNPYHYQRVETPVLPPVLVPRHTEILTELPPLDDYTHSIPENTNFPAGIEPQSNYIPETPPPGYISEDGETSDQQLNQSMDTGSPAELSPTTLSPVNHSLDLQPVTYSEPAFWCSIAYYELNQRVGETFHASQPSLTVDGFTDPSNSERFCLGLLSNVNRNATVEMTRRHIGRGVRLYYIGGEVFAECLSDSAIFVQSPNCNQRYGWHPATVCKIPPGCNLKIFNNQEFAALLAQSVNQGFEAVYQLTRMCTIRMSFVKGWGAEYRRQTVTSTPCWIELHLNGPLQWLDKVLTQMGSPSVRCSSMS
# UniProt Q2TAL8: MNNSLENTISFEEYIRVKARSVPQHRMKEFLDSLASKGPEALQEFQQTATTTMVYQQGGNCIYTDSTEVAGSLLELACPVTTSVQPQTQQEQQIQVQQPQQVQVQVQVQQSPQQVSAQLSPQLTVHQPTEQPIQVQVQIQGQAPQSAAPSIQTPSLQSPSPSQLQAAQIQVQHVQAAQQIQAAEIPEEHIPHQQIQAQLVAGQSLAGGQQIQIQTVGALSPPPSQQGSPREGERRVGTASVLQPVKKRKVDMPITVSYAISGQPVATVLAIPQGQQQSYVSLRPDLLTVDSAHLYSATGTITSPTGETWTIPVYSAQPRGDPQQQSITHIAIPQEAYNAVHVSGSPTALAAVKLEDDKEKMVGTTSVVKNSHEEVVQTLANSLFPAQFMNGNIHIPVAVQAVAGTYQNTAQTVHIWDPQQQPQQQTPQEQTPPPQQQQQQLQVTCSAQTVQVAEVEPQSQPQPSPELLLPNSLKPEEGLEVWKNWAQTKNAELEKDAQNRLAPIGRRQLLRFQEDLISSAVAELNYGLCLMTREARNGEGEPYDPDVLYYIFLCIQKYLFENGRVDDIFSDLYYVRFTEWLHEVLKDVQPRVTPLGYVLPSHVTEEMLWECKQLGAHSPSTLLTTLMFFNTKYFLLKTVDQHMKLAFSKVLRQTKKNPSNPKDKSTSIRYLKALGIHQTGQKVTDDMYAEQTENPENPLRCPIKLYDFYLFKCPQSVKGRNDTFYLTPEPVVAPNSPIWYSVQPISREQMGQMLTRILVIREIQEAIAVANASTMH
# This is one part of the list. Most entries show no effect beyond the scatter of the controls.
# Compound: CN[C@@H]1C[C@H]2O[C@@](C)([C@@H]1OC)n1c3ccccc3c3c4c(c5c6ccccc6n2c5c31)C(=O)NC4 [staurosporine]
# Assay: log2 fold change of tryptic peptide abundance, ligand vs vehicle (limited proteolysis) (log2 ratio); higher = more trypsin-susceptible (destabilized)
# Settings: ligand concentration: 20 uM; sample: K562 cleared lysate; digestion: 4 min, 22 C (HT-PELSA RT4min, Orbitrap Astral)
row,Target,log2 fold change
1,"E2F4 (peptide sequence: ELSEIFDPTR, peptide start residue: 351) (UniProt Q16254)",0.722
2,"DPYSL2 (peptide sequence: GSPLVVISQGK, peptide start residue: 441) (UniProt Q16555)",-0.29
3,"TSC22D1 (peptide sequence: SHLMYAVREEVEVLKEQIK, peptide start residue: 699) (UniProt Q15714)",0.525
4,"CSRP2 (peptide sequence: LGIKPESVQPHRPTTNPNTSK, peptide start residue: 88) (UniProt Q16527)",-0.255
5,"PCBP2 (peptide sequence: MREESGAR, peptide start residue: 39) (UniProt Q15366)",0.265
6,"TWISTNB (peptide sequence: SEVSEEVTENGTEEAAKKPK, peptide start residue: 208) (UniProt Q3B726)",0.325
7,"ACAP2 (peptide sequence: ASYEKNLPK, peptide start residue: 613) (UniProt Q15057)",0.826
8,"UniProt Q155Q3 (peptide sequence: ALVQQYEGQQR, peptide start residue: 200)",-0.448
9,"UniProt Q15631 (peptide sequence: TKFPAEQYYR, peptide start residue: 77)",0.307
10,"NCOA2 (peptide sequence: QMHQQQQVQQR, peptide start residue: 1251) (UniProt Q15596)",-0.829
11,"CYTH1 (peptide sequence: LKDEIAEVANEIENLGSTEERK, peptide start residue: 37) (UniProt Q15438)",-0.513
12,"KIZ (peptide sequence: EHDNSVKEEATALLR, peptide start residue: 474) (UniProt Q2M2Z5)",0.747
13,"UBE3C (peptide sequence: CLRDACLGIIK, peptide start residue: 548) (UniProt Q15386)",0.182
14,"TIMM50 (peptide sequence: LEQEEQQR, peptide start residue: 318) (UniProt Q3ZCQ8)",0.432
15,"UniProt Q16670 (peptide sequence: AFSLTSDLIR, peptide start residue: 402)",-0.254
16,"ARHGEF6 (peptide sequence: SNGQTIMEEK, peptide start residue: 703) (UniProt Q15052)",0.353
17,"CYP51A1 (peptide sequence: FAYVPFGAGR, peptide start residue: 443) (UniProt Q16850)",-0.277
18,"TEAD2 (peptide sequence: IILSDEGK, peptide start residue: 58) (UniProt Q15562)",0.203
19,"ATP2B3 (peptide sequence: KPYGRDK, peptide start residue: 912) (UniProt Q16720)",0.15
20,"TCEA2 (peptide sequence: DASEAPDPSR, peptide start residue: 102) (UniProt Q15560)",-0.454
21,"SMAD2 (peptide sequence: AIENCEYAFNLKK, peptide start residue: 145) (UniProt Q15796)",-0.212
22,"RBBP5 (peptide sequence: TTNIELQGVPNDEVHPLLGVKGDGK, peptide start residue: 454) (UniProt Q15291)",-0.277
23,"QRICH1 (peptide sequence: EQMGQMLTR, peptide start residue: 748) (UniProt Q2TAL8)",0.154
24,"AAK1 (peptide sequence: LGEGKHPEK, peptide start residue: 719) (UniProt Q2M2I8)",0.187
25,"PDK1 (peptide sequence: EISLLPDNLLR, peptide start residue: 93) (UniProt Q15118)",-0.184
26,"QPRT (peptide sequence: GAGWTGHVAGTR, peptide start residue: 127) (UniProt Q15274)",0.335

# Copied from the list:
# log2 fold change, TWISTNB (peptide sequence: SEVSEEVTENGTEEAAKKPK, peptide start residue: 208) (UniProt Q3B726) is entered as 0.325
# log2 fold change, KIZ (peptide sequence: EHDNSVKEEATALLR, peptide start residue: 474) (UniProt Q2M2Z5) is entered as 0.747
